{"source": "paper PMC11153594", "binders": {"B1": {"name": "KREMEN1 (Kringle containing transmembrane protein 1) fused at the C-terminus to SmBiT or LgBiT (protein, UniProt Q96MU8-2 20-492)", "chain": "ARPAPSPGLGPGPECFTANGADYRGTQNWTALQGGKPCLFWNETFQHPYNTLKYPNGEGGLGEHNYCRNPDGDVSPWCYVAEHEDGVYWKYCEIPACQMPGNLGCYKDHGNPPPLTGTSKTSNKLTIQTCISFCRSQRFKFAGMESGYACFCGNNPDYWKYGEAASTECNSVCFGDHTQPCGGDGRIILFDTLVGACGGNYSAMSSVVYSPDFPDTYATGRVCYWTIRVPGASHIHFSFPLFDIRDSADMVELLDGYTHRVLARFHGRSRPPLSFNVSLDFVILYFFSDRINQAQGFAVLYQAVKEELPQERPAVNQTVAEVITEQANLSVSAARSSKVLYVITTSPSHPPQTVPGSNSWAPPMGAGSHRVEGWTVYGLATLLILTVTAIVAKILLHVTFKSHRVPASGDLRDCHQPGTSGEIWSIFYKPSTSISIFKKKLKGQSQQDDRNPLAIQDSEVTSLIWSQGQPRSI"}}, "key": {"[1]": {"target": "KREMEN1 (Kringle containing transmembrane protein 1) fused at the C-terminus to SmBiT or LgBiT (UniProt Q96MU8)", "experiment": "split reporter; HS-ES-2R cells stably expressing KREMEN1-SmBiT and KREMEN1-LgBiT; luminescence in living cells, normalized to cell viability; cells untreated, treated with 0.2 or 0.4 uM CP-C27 for 24 h, transfected with siKREMEN2, or transduced with a KREMEN2 cDNA vector"}, "[2]": {"target": "KREMEN1 (Kringle containing transmembrane protein 1) fused at the C-terminus to SmBiT or LgBiT (UniProt Q96MU8)", "experiment": "split reporter; HEK293T cells transfected for 48 h with KREMEN1-SmBiT and KREMEN1-LgBiT plasmids (200 ng/well); luminescence in living cells (Nano-Glo Live Cell Assay System), normalized to cell viability"}}, "note": "Results are given in words; binding and its absence hold for the method and conditions named. In cells and extracts the contact can be indirect. Some entries that bind do so weakly or less than the wild type. Sequences can lack the tags named with a protein."}
{"binder": "B1", "values": [{"measurement": "binding", "setting": "[1]", "result": "binds"}, {"measurement": "binding", "setting": "[2]", "result": "binds"}]}
